# Where a name gives a salt, the structure may show the parent alone. The list shows a part of the results. Repeats in this data set agree poorly, so a single value says little.
# Tested on: MDA-MB-468
# Assay: phospho-S6 immunofluorescence (DAPI-normalised), per-plate z-score; higher = higher phospho-S6 signal (less pathway suppression)
# Settings: 24 h
# Procedure: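 GPCR-targeted compound library (MedChemExpress HY-L006) tested on MDA-MB-468 PTEN-null TNBC cells in 384-well plates at 0.1, 1 or 10 uM, combined with vehicle, GDC0941 450 nM or lapatinib 1 uM, for 24 h. Phospho-S6 (S240/244) immunofluorescence normalised to DAPI and expressed as a per-plate z-score; values are the mean of biological triplicates.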
# [1] = compound 0.1 µM, co-treatment: GDC0941 450 nM
# [2] = compound 0.1 µM, co-treatment: lapatinib 1 uM
# [3] = compound 0.1 µM, co-treatment: vehicle
# [4] = compound 1 µM, co-treatment: GDC0941 450 nM
# [5] = compound 1 µM, co-treatment: lapatinib 1 uM
# [6] = compound 1 µM, co-treatment: vehicle
# [7] = compound 10 µM, co-treatment: GDC0941 450 nM
# [8] = compound 10 µM, co-treatment: lapatinib 1 uM
# [9] = compound 10 µM, co-treatment: vehicle
smiles,measurement,setting,value
N#Cc1c(Oc2cccc(OS(=O)(=O)CCCC(F)(F)F)c2)cccc1C(F)(F)F,phospho-S6 immunofluorescence (z-score),[1],-0.97
same,phospho-S6 immunofluorescence (z-score),[2],-0.45
same,phospho-S6 immunofluorescence (z-score),[3],-1.2
same,phospho-S6 immunofluorescence (z-score),[4],-1.22
same,phospho-S6 immunofluorescence (z-score),[5],-0.19
same,phospho-S6 immunofluorescence (z-score),[6],-0.27
same,phospho-S6 immunofluorescence (z-score),[7],-3.05
same,phospho-S6 immunofluorescence (z-score),[8],-2.85
same,phospho-S6 immunofluorescence (z-score),[9],-5.42
O=c1[nH]c2ccccc2n1CCCN1CCC(n2c(=O)[nH]c3cc(Cl)ccc32)CC1 [Domperidone],phospho-S6 immunofluorescence (z-score),[1],-0.94
same,phospho-S6 immunofluorescence (z-score),[2],0.04
same,phospho-S6 immunofluorescence (z-score),[3],0.4
same,phospho-S6 immunofluorescence (z-score),[4],-0.22
same,phospho-S6 immunofluorescence (z-score),[5],-0.79
same,phospho-S6 immunofluorescence (z-score),[6],-0.6
same,phospho-S6 immunofluorescence (z-score),[7],0.19
same,phospho-S6 immunofluorescence (z-score),[8],0.25
same,phospho-S6 immunofluorescence (z-score),[9],1.62
Cc1cccc(C)c1NC1=NCCCS1 [Xylazine (hydrochloride)],phospho-S6 immunofluorescence (z-score),[1],-0.07
same,phospho-S6 immunofluorescence (z-score),[2],0.7
same,phospho-S6 immunofluorescence (z-score),[3],0.46
same,phospho-S6 immunofluorescence (z-score),[4],0.58
same,phospho-S6 immunofluorescence (z-score),[5],0.29
same,phospho-S6 immunofluorescence (z-score),[6],1.86
same,phospho-S6 immunofluorescence (z-score),[7],0.73
same,phospho-S6 immunofluorescence (z-score),[8],0.79
same,phospho-S6 immunofluorescence (z-score),[9],0.89
Cc1ncc(CN2CC=C(c3ccccc3)CC2)c(N)n1 [Ro 10-5824 (dihydrochloride)],phospho-S6 immunofluorescence (z-score),[1],-0.27
same,phospho-S6 immunofluorescence (z-score),[2],0.97
same,phospho-S6 immunofluorescence (z-score),[3],0.02
same,phospho-S6 immunofluorescence (z-score),[4],0.33
same,phospho-S6 immunofluorescence (z-score),[5],-0.53
same,phospho-S6 immunofluorescence (z-score),[6],0.46
CN1[C@@H]2CC[C@H]1C[C@@H](OC(=O)C(CO)c1ccccc1)C2 (some centres not stated) [Atropine (sulfate monohydrate)],phospho-S6 immunofluorescence (z-score),[1],-2.19
same,phospho-S6 immunofluorescence (z-score),[2],-0.96
same,phospho-S6 immunofluorescence (z-score),[3],-1.91
same,phospho-S6 immunofluorescence (z-score),[4],-1.09
same,phospho-S6 immunofluorescence (z-score),[5],0.21
same,phospho-S6 immunofluorescence (z-score),[6],-1.6
same,phospho-S6 immunofluorescence (z-score),[7],-1.09
same,phospho-S6 immunofluorescence (z-score),[8],-0.18
same,phospho-S6 immunofluorescence (z-score),[9],-0.82

# Two records picked at random from the list so far, as already listed:
smiles,measurement,setting,value
N#Cc1c(Oc2cccc(OS(=O)(=O)CCCC(F)(F)F)c2)cccc1C(F)(F)F,phospho-S6 immunofluorescence (z-score),[2],-0.45
Cc1cccc(C)c1NC1=NCCCS1 [Xylazine (hydrochloride)],phospho-S6 immunofluorescence (z-score),[3],0.46
